Source: the supplement of paper PMC6418307
Counter-ions that a name gives are not always drawn. Single values of this set are uncertain.

Tested on: primary mouse cortical neurons
Assay: cell health score (luciferase spike-in reads / total reads per well) (fraction); higher = fewer cellular reads, worse cell health / toxicity
Settings: treatment time 24 h
[1] = 0.01 µM, sex of neuron culture: Female
[2] = 0.01 µM, sex of neuron culture: Male
[3] = 0.1 µM, sex of neuron culture: Female
[4] = 0.1 µM, sex of neuron culture: Male
[5] = 1 µM, sex of neuron culture: Female
[6] = 1 µM, sex of neuron culture: Male
[7] = 10 µM, sex of neuron culture: Female
[8] = 10 µM, sex of neuron culture: Male

Compound	cell health score [1]	cell health score [2]	cell health score [3]	cell health score [4]	cell health score [5]	cell health score [6]	cell health score [7]	cell health score [8]
c1ccc(Nc2ccccc2)cc1 [Diphenylamine]	0.000572	0.00406	0.000717	0.00057	0.000706	0.00069	0.000789	0.000745
CCCOC(=O)c1ccc(C(=O)OCCC)nc1 [Dipropyl pyridine-2,5-dicarboxylate]	0.000627	0.000655	0.000624	0.000783	0.000759	0.000538	0.000978	0.000687
c1cc[n+]2c(c1)-c1cccc[n+]1CC2 [Diquat dibromide monohydrate]	0.000482	0.000763	0.00116	0.000752	0.00106	0.000756	0.00506	0.00308
CCOP(=S)(OCC)SCCSCC [Disulfoton]	0.000524	0.000728	0.000868	0.000735	0.000895	0.000659	0.000968	0.000451
CSC(=O)c1c(C(F)F)nc(C(F)(F)F)c(C(=O)SC)c1CC(C)C [Dithiopyr]	0.000515	0.00109	0.000591	0.00105	0.00195	0.000474	0.00172	0.0012
CN(C)C(=O)Nc1ccc(Cl)c(Cl)c1 [Diuron]	0.000436	0.000652	0.000623	0.000825	0.000738	0.000665	0.000786	0.000668
CC[C@H](C)C1O[C@]2(C=C[C@@H]1C)C[C@@H]1C[C@@H](C/C=C(\C)[C@@H](O[C@H]3C[C@H](OC)[C@@H](O[C@H]4C[C@H](OC)[C@H](NC)[C@H](C)O4)[C@H](C)O3)[C@@H](C)/C=C/C=C3\CO[C@@H]4[C@H](O)C(C)=C[C@@H](C(=O)O1)[C@]34O)O2 (some centres not stated) [Emamectin benzoate]	0.000487	0.000953	0.000822	0.00108	0.000886	0.000703	0.216	
O=S1OCC2C(CO1)C1(Cl)C(Cl)=C(Cl)C2(Cl)C1(Cl)Cl (configuration not stated) [Endosulfan]	0.000528	0.000682	0.000984	0.000787	0.000829	0.000625	0.00139	0.00059
Oc1ccc([C@H]2COc3cc(O)ccc3C2)cc1 [Equol]	0.00066	0.000748	0.00102	0.000979	0.000836	0.000906	0.000659	0.000841
CC(C)[C@H](C(=O)O[C@H](C#N)c1cccc(Oc2ccccc2)c1)c1ccc(Cl)cc1 [Esfenvalerate]	0.000548	0.000976	0.00089	0.00114	0.000837	0.000753	0.000918	0.000557
C=C(C)CN(CC)c1c([N+](=O)[O-])cc(C(F)(F)F)cc1[N+](=O)[O-] [Ethalfluralin]	0.000414	0.000988	0.000883	0.00105	0.000846	0.000473	0.00124	0.000426
O=P(O)(O)CCCl [Ethephon]	0.000522	0.000569	0.00219	0.000874	0.00098	0.000787	0.00135	0.000503
CCOC1Oc2ccc(OS(C)(=O)=O)cc2C1(C)C (configuration not stated) [Ethofumesate]	0.000448	0.000732	0.00072	0.000728	0.00077	0.000522	0.000917	0.000519
CCCSP(=O)(OCC)SCCC [Ethoprop]	0.000722	0.000795	0.000623	0.000987	0.00095	0.000812	0.00133	0.00078
S=C1NCCN1 [Ethylene thiourea]	0.000552	0.000876	0.000519	0.000899	0.000885	0.000619	0.00111	0.00105
CCOc1cc(C(C)(C)C)ccc1C1COC(c2c(F)cccc2F)=N1 (configuration not stated) [Etoxazole]	0.000414	0.000609	0.00114	0.000542	0.000548	0.000559	0.00116	0.000636
CSC1=N[C@@](C)(c2ccccc2)C(=O)N1Nc1ccccc1 [Fenamidone]	0.000628	0.000817	0.000671	0.000856	0.000987	0.000382	0.00244	0.00184
CCOP(=O)(O)N(c1ccc(SC)c(C)c1)C(C)C [Fenamiphos]	0.000604	0.000747	0.000616	0.000867	0.000803	0.00067	0.00123	0.000595
OC(c1ccc(Cl)cc1)(c1cncnc1)c1ccccc1Cl (configuration not stated) [Fenarimol]	0.000538	0.000831	0.000807	0.000833	0.000746	0.000703	0.000944	0.000504
CC(C)(C)c1ccc(CCOc2ncnc3ccccc23)cc1 [Fenazaquin]	0.00215	0.0168	0.00699	0.0105	0.0146	0.00925	0.0141	0.0121
N#CC(CCc1ccc(Cl)cc1)(Cn1cncn1)c1ccccc1 (configuration not stated) [Fenbuconazole]	0.000443	0.000752	0.000761	0.000729	0.00104	0.00097	0.000905	0.000898
CC1(C(=O)Nc2ccc(O)c(Cl)c2Cl)CCCCC1 [Fenhexamid]	0.000453	0.000898	0.000832	0.000909	0.00116	0.000813	0.000981	0.000589
COP(=S)(OC)Oc1ccc([N+](=O)[O-])c(C)c1 [Fenitrothion]	0.000568	0.000903	0.000761	0.000823	0.00072	0.000594	0.00108	0.00072
CCOC(=O)C(C)Oc1ccc(Oc2nc3ccc(Cl)cc3o2)cc1 (configuration not stated) [Fenoxaprop-ethyl]	0.000615	0.000813	0.000903	0.000816	0.000701	0.000667	0.00058	0.000509
CCOC(=O)NCCOc1ccc(Oc2ccccc2)cc1 [Fenoxycarb]	0.000589	0.000665	0.00197	0.000898	0.000902	0.000489	0.00117	0.000632
CC1(C)C(C(=O)OC(C#N)c2cccc(Oc3ccccc3)c2)C1(C)C (configuration not stated) [Fenpropathrin]	0.000561	0.000832	0.00105	0.000731	0.00069	0.000748	0.000641	0.000526

An excerpt taken from the entries so far, as a working copy:
Compound	cell health score [1]	cell health score [2]	cell health score [3]	cell health score [4]	cell health score [5]	cell health score [6]	cell health score [7]	cell health score [8]
O=S1OCC2C(CO1)C1(Cl)C(Cl)=C(Cl)C2(Cl)C1(Cl)Cl (configuration not stated) [Endosulfan]	0.000528	0.000682	0.000984	0.000787	0.000829	0.000625	0.00139	0.00059
Oc1ccc([C@H]2COc3cc(O)ccc3C2)cc1 [Equol]	0.00066	0.000748	0.00102	0.000979	0.000836	0.000906	0.000659	0.000841
CC(C)[C@H](C(=O)O[C@H](C#N)c1cccc(Oc2ccccc2)c1)c1ccc(Cl)cc1 [Esfenvalerate]	0.000548	0.000976	0.00089	0.00114	0.000837	0.000753	0.000918	0.000557
C=C(C)CN(CC)c1c([N+](=O)[O-])cc(C(F)(F)F)cc1[N+](=O)[O-] [Ethalfluralin]	0.000414	0.000988	0.000883	0.00105	0.000846	0.000473	0.00124	0.000426
O=P(O)(O)CCCl [Ethephon]	0.000522	0.000569	0.00219	0.000874	0.00098	0.000787	0.00135	0.000503
CCOC1Oc2ccc(OS(C)(=O)=O)cc2C1(C)C (configuration not stated) [Ethofumesate]	0.000448	0.000732	0.00072	0.000728	0.00077	0.000522	0.000917	0.000519
CCCSP(=O)(OCC)SCCC [Ethoprop]	0.000722	0.000795	0.000623	0.000987	0.00095	0.000812	0.00133	0.00078
S=C1NCCN1 [Ethylene thiourea]	0.000552	0.000876	0.000519	0.000899	0.000885	0.000619	0.00111	0.00105
CCOc1cc(C(C)(C)C)ccc1C1COC(c2c(F)cccc2F)=N1 (configuration not stated) [Etoxazole]	0.000414	0.000609	0.00114	0.000542	0.000548	0.000559	0.00116	0.000636
CSC1=N[C@@](C)(c2ccccc2)C(=O)N1Nc1ccccc1 [Fenamidone]	0.000628	0.000817	0.000671	0.000856	0.000987	0.000382	0.00244	0.00184
CCOP(=O)(O)N(c1ccc(SC)c(C)c1)C(C)C [Fenamiphos]	0.000604	0.000747	0.000616	0.000867	0.000803	0.00067	0.00123	0.000595
OC(c1ccc(Cl)cc1)(c1cncnc1)c1ccccc1Cl (configuration not stated) [Fenarimol]	0.000538	0.000831	0.000807	0.000833	0.000746	0.000703	0.000944	0.000504
CC(C)(C)c1ccc(CCOc2ncnc3ccccc23)cc1 [Fenazaquin]	0.00215	0.0168	0.00699	0.0105	0.0146	0.00925	0.0141	0.0121
N#CC(CCc1ccc(Cl)cc1)(Cn1cncn1)c1ccccc1 (configuration not stated) [Fenbuconazole]	0.000443	0.000752	0.000761	0.000729	0.00104	0.00097	0.000905	0.000898

The listing continues:

Compound	cell health score [1]	cell health score [2]	cell health score [3]	cell health score [4]	cell health score [5]	cell health score [6]	cell health score [7]	cell health score [8]
Cc1nn(C)c(Oc2ccccc2)c1C=NOCc1ccc(C(=O)OC(C)(C)C)cc1 [Fenpyroximate (Z,E)]	0.0149	0.0126	0.0108	0.0183	0.018	0.00813	0.0101	0.0112
COP(=S)(OC)Oc1ccc(SC)c(C)c1 [Fenthion]	0.000658	0.00107	0.00167	0.000867	0.00103	0.000617	0.00108	0.000598
N#Cc1nn(-c2c(Cl)cc(C(F)(F)F)cc2Cl)c(N)c1[S+]([O-])C(F)(F)F (configuration not stated) [Fipronil]	0.000572	0.000843	0.000751	0.00105	0.00127	0.000696	0.00226	0.00226
CN1CC[C@H](c2c(O)cc(O)c3c(=O)cc(-c4ccccc4Cl)oc23)[C@H](O)C1 [Flavopiridol]	0.000534	0.000709	0.00198	0.000866	0.00853	0.00515	0.00809	0.00681
CCCCOC(=O)[C@@H](C)Oc1ccc(Oc2ccc(C(F)(F)F)cn2)cc1 [Fluazifop-P-butyl]	0.000553	0.000863	0.000745	0.000795	0.000933	0.00046	0.00101	0.000499
CCCCOC(=O)C(C)Oc1ccc(Oc2ccc(C(F)(F)F)cn2)cc1 (configuration not stated) [Fluazifop-butyl]	0.000463	0.000964	0.000831	0.000866	0.000806	0.000438	0.00124	0.00226
O=[N+]([O-])c1cc(C(F)(F)F)c(Cl)c([N+](=O)[O-])c1Nc1ncc(C(F)(F)F)cc1Cl [Fluazinam]	0.000609	0.00122	0.000751	0.000937	0.00153	0.00102	0.0251	0.0394
N#Cc1c[nH]cc1-c1cccc2c1OC(F)(F)O2 [Fludioxonil]	0.000405	0.000702	0.00157	0.000727	0.000961	0.000832	0.00103	0.000632
CC(C)N(C(=O)COc1nnc(C(F)(F)F)s1)c1ccc(F)cc1 [Flufenacet]	0.000459	0.000651	0.000701	0.000837	0.000839	0.000648	0.000866	0.000623
CCOC(=O)COc1cc(-n2ncc(C(F)(F)F)c(C)c2=O)c(F)cc1Cl [Flufenpyr-ethyl]	0.000696	0.00106	0.000698	0.000729	0.000741	0.00112	0.00115	0.000573
CCN(Cc1c(F)cccc1Cl)c1c([N+](=O)[O-])cc(C(F)(F)F)cc1[N+](=O)[O-] [Flumetralin]	0.000474	0.000652	0.000663	0.00095	0.000923	0.000639	0.00125	0.000639
Cc1ccn2nc(S(=O)(=O)Nc3c(F)cccc3F)nc2n1 [Flumetsulam]	0.000443	0.000795	0.000851	0.00162	0.00125	0.000846	0.00105	0.000493
CCCCCOC(=O)COc1cc(N2C(=O)C3=C(CCCC3)C2=O)c(F)cc1Cl [Flumiclorac-pentyl]	0.000559	0.000738	0.00111	0.000867	0.00081	0.000607	0.00137	0.000582
C#CCN1C(=O)COc2cc(F)c(N3C(=O)C4=C(CCCC4)C3=O)cc21 [Flumioxazin]	0.000499	0.000872	0.000693	0.000651	0.000645	0.00045	0.00107	0.000352
CN(C)C(=O)Nc1cccc(C(F)(F)F)c1 [Fluometuron]	0.00034	0.000844	0.000931	0.000802	0.000952	0.000658	0.00111	0.000687
O=c1[nH]c(=O)n([C@H]2C[C@H](O)[C@@H](CO)O2)cc1F [Fluorodeoxy uridine (FdU)]	0.00101	0.000619	0.000757	0.000983	0.000647	0.00054	0.000672	0.00145
CO/N=C(/C1=NOCCO1)c1ccccc1Oc1ncnc(Oc2ccccc2Cl)c1F [Fluoxastrobin]	0.000406	0.00218	0.000648	0.00112	0.00159	0.00141	0.0136	0.00696
CCCCCCC(C)OC(=O)COc1nc(F)c(Cl)c(N)c1Cl (configuration not stated) [Fluroxypyr-meptyl]	0.000569	0.000954	0.000862	0.000752	0.000827	0.000634	0.00106	0.000666
Nc1c(Cl)c(F)nc(OCC(=O)O)c1Cl [Fluroxypyr]	0.000544	0.000648	0.000815	0.000819	0.00103	0.000863	0.000906	0.000434
C[Si](Cn1cncn1)(c1ccc(F)cc1)c1ccc(F)cc1 [Flusilazole]	0.000737	0.000674	0.000935	0.000825	0.000467	0.000432	0.00102	0.000576
COC(=O)CSc1cc(/N=c2\sc(=O)n3n2CCCC3)c(F)cc1Cl [Fluthiacet-methyl]	0.000597	0.00074	0.00101	0.000842	0.000847	0.000621	0.00157	0.000574
CC(C)Oc1cccc(NC(=O)c2ccccc2C(F)(F)F)c1 [Flutolanil]	0.000649	0.000788	0.00153	0.000801	0.00113	0.000882	0.00133	0.00119
O=C1c2ccccc2C(=O)N1SC(Cl)(Cl)Cl [Folpet]	0.000458	0.000729	0.00176	0.000913	0.000654	0.000872	0.00101	0.000517
O=C(Nc1ccccc1)Nc1ccnc(Cl)c1 [Forchlorfenuron]	0.000895	0.000808	0.000847	0.000817	0.000717	0.000479	0.000899	0.000532
CNC(=O)Oc1cccc(/N=C/N(C)C)c1 [Formetanate hydrochloride]	0.0013	0.000817	0.000924	0.000804	0.000722	0.000507	0.00107	0.000547
